In US10653806B2, “Homomultivalent and heteromultivalent inhibitors of prostate specific membrane antigen (PSMA) and uses thereof” (THE JOHNS HOPKINS UNIVERSITY, priority 2011, dated 2020):
At least one compound was matched to its structure with a doubt left.

The chains behind the UniProt entries cited, without tags or fusion partners.
UniProt Q04609, whole entry: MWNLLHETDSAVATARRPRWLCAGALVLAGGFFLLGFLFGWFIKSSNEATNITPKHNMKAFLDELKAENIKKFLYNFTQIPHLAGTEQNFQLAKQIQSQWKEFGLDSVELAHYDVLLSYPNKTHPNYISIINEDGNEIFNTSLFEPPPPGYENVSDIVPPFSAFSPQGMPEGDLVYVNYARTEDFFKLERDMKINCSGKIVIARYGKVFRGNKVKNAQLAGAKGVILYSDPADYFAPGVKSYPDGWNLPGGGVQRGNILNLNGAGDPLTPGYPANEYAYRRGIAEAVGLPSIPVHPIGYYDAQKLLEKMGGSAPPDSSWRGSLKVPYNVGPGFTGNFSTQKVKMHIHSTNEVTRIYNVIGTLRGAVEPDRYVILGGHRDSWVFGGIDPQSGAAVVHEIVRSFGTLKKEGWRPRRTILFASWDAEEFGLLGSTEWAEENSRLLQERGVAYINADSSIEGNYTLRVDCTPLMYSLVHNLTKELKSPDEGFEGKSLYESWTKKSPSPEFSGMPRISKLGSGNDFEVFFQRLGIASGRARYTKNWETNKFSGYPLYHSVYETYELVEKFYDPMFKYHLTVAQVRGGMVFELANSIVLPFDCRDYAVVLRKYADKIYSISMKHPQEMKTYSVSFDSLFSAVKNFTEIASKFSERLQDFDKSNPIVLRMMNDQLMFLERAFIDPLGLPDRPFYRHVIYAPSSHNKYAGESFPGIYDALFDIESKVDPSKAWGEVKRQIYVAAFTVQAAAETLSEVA

Biological target: T1, PSMA (Homo sapiens, UniProt Q04609)
T1 construct: endogenous in cells; host or cells: LNCaP cell lysate
Assay: fluorescence-based PSMA inhibition assay (NAAG hydrolysis, LNCaP cell lysates, Amplex Red)
Type: biochemical
Settings: PSMA inhibitory activity; Cheng-Prusoff conversion

Molecule `[N-]=[N+]=NCCCCC(NC(=O)CCCCCCC(=O)NCCCC[C@H](NC(=O)N[C@@H](CCC(=O)O)C(=O)O)C(=O)O)C(=O)O` (stereo partly drawn) [Compound 1, (3S, 7S)-26-Azido-5,13,20-trioxo-4,6,12,21-tetraazahexacosane-1,3,7,22-tetracarboxylic acid] has a Ki of 0.91 nM.
